Some results come without the dose or concentration used.
Tests used:
Type in all cases: cell-based, Saccharomyces cerevisiae
Parameters in all cases: key: 0: SH3-independent; 1: SH3-dependent PPIs; 2: SH3-inhibited PPIs
[1] = tested on: BBC1; assay: DHFR-PCA on solid medium, bait BBC1 (Fig. 1B); conditions: bait BBC1, label = prey
Source text: (§1) Supplement 41467_2021_21873_MOESM8_ESM.xlsx, sheet "Fig1B" | column: medsize; medrep; Ratio; Score

[2] = tested on: BUD14; assay: DHFR-PCA on solid medium, bait BUD14 (Fig. 1B); conditions: bait BUD14, label = prey
Source text: as §1

[3] = tested on: BOI2; assay: DHFR-PCA on solid medium, bait BOI2 (Fig. 1B); conditions: bait BOI2, label = prey
Source text: as §1

[4] = tested on: BOI1; assay: DHFR-PCA on solid medium, bait BOI1 (Fig. 1B); conditions: bait BOI1, label = prey
Source text: as §1

Substance	Score [1]	Score [2]	Score [3]	Score [4]
YAL005C	0	0	0	2
YBR234C	0	1	0	
YCR088W (PWATAEYDYDAAEDNELTFVENDKIINIEFVDDDWWLGELEKDGSKGLFPSNYVSLGN)	0		0	
YDL229W	0	0	0	2
YDR388W (ETVTALYDYQAQAAGDLSFPAGAVIEIVQRTPDVNEWWTGRYNGQQGVFPGNYVQLNK)	1			
YER155C		1	1	1
YFR024C-A (PKAVALYSFAGEESGDLPFRKGDVITILKKSDSQNDWWTGRVNGREGIFPANYVELV)	1			
YGL206C	1			1
YIL062C	0			
YLR370C	0			
YMR109W (PMFEAAYDFPGSGSPSELPLKKGDVIYITREEPSGWSLGKLLDGSKEGWVPTAYMKPHS)	0		1	
YNL138W	1			
YOR181W	1			

Source: paper PMC7954794, “Protein context shapes the specificity of SH3 domain-mediated interactions in vivo” (Nature Communications, 2021)
